Data on two sequences can be found in patent US20080248995, “Modulation of PPARgamma2 gene promoter by FOXO1” (Technion Research and Development Foundation Ltd., published 2008).

Chains of the proteins cited; added tags and fusions are not shown.
UniProt Q12778, whole entry V343M: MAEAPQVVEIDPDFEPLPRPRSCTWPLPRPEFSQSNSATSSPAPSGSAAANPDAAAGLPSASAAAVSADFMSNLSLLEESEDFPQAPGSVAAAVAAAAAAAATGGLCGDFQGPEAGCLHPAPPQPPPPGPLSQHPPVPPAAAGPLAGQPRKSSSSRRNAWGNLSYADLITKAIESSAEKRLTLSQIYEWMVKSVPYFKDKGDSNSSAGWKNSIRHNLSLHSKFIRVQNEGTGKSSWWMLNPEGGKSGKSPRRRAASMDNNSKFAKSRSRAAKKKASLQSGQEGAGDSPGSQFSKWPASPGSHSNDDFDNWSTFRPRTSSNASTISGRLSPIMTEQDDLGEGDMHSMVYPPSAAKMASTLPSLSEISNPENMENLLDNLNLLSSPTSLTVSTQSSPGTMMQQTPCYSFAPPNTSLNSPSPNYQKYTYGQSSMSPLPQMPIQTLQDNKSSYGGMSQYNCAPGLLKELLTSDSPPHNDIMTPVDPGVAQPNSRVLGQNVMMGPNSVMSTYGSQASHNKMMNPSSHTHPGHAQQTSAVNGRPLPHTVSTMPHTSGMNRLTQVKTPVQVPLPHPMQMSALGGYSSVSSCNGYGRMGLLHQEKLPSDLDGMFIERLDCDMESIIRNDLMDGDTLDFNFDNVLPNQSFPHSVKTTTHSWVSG
UniProt Q12778, whole entry H215R/V343M: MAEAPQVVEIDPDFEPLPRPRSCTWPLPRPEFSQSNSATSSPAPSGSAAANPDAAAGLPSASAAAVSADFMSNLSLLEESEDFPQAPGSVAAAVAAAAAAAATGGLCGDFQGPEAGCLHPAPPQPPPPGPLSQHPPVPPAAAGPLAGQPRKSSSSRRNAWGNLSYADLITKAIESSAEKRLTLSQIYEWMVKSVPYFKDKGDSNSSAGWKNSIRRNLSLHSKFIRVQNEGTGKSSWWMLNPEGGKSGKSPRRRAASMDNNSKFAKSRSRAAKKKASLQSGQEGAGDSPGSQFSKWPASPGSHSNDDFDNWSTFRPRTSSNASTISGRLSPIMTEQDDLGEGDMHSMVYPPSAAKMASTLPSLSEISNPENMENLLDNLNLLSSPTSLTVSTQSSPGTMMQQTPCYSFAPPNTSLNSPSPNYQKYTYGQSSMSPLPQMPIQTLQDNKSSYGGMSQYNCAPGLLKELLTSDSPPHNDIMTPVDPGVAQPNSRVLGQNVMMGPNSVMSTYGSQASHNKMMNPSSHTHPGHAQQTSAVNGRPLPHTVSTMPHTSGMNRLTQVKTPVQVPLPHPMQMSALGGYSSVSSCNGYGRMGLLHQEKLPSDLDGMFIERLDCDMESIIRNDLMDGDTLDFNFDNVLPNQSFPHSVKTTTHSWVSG

For part of these data: At least one result comes from cells or an extract, where the contact may be indirect. For part of these data: Construct, isoform or probe ends are uncertain for at least one entry. For part of these data: A negative result means that nothing was seen under these conditions.

Series [1] concerns the target FOXO1 (FLAG-tagged, transfected) (Homo sapiens) (UniProt Q12778). Description: binding assay. Particulars: ChIP in HEK-293, two-step cross-linking; no signal with one-step cross-linking; protein in cells; protein details: FLAG, pcDNA3.
The target in series [2] is FOXO1 H215R (Homo sapiens) (UniProt Q12778). Description: activity in cells. As to conditions: DNA binding-defective mutant completely lost repression; protein in cells; protein details: FLAG, pcDNA3.
In series [3] the target is FOXO1 (FLAG-tagged, transfected) (Homo sapiens) (UniProt Q12778). Briefly: activity in cells. Particulars: dose-dependent repression of luciferase reporter in primary rat adipocytes; insulin partly reverses; protein in cells; protein details: FLAG, pcDNA3. (In general: Reporter assays use an easily measured gene product as a stand-in for the process of interest.)

Turning to “CAAATAATGTGATTAGAGATTCAACCAGGAATAGACACCGAAAGAAAACTTTGCCCAAATAAGCTTTCTGGTATTTCATAAGCAAGAGATTTAAGTTTTCCATTTAAGAAGCAATTGTGAATTTTACAACAATAAAAAATGCAAGTGGATATTGAACAGTCTCTGCTCTGATAATTCTAAATACAGTACAGTTCACGCCCCTCACAAGACACTGAACATGTGGGTCACCGGCGAGACAGTGTGGCAATATTTTCCCTGTAA (double strand) [hPPARγ2 promoter region 63-323]”, the binding result in series [1] was “binds”.
With “CAGTAGCATGCTGATACCAACGTTTAAACTATGGATACATATTTGAATTCCAAATTTTTCTTCAAATAATGTGATTAGAGATTCAACCAGGAATAGACACCGAAAGAAAACTTTGCCCAAATAAGCTTTCTGGTATTTCATAAGCAAGAGATTTAAGTTTTCCATTTAAGAAGCAATTGTGAATTTTACAACAATAAAAAATGCAAGTGGATATTGAACAGTCTCTGCTCTGATAATTCTAAATACAGTACAGTTCACGCCCCTCACAAGACACTGAACATGTGGGTCACCGGCGAGACAGTGTGGCAATATTTTCCCTGTAATGTACCAAGTCTTGCCAAAGCAGTGAACATTATGACACAACTTTTTGTCACAGCTGGCTCCTAATAGGACAGTGCCAGCCAATTCAAGCCCAGTCCTTTCTGTGTTTATTCCCATCTCTCCCAAATATTTGGAAACTGATGTCTTGACTCATGGGTGTATTCACAAATTCTGTTACTTCAAGTCTTTTTCTTTTAACGGATTGATCTTTTGCTAGATAGAGACAAAATATCAGTGTGAATTACAGCAAACCCCTATTCCATGCT (double strand) [hPPARγ2 promoter hG2-P587]”, the “activity on this sequence” value in series [2] is “not active”. Further, the activity on this sequence (% repression below basal) in series [3] is below 65.
